Some of the results follow. Further columns of the screen follow, without active or inactive calls. Compounds called inactive in the main read-out are mostly missing here. Words in brackets tell the shape of the fitted curve; partial curves, single points and poor fits give uncertain potencies.
Assay: qHTS Assay for Lipid Storage Modulators in Drosophila S3 Cells;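 as to cell number change: cells counted by Cell Tracker Red CMTPX staining in the red channel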
Conditions: BODIPY lipid droplet fluorescence, 18-24 h; for cell number change: measured here: cell count max response, cells fed with added oleic acid
In short: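 Drosophila S3 cells loaded with oleic acid (400 uM, as added) and compounds at several concentrations; lipid droplets imaged by 488-nm laser-scanning cytometry, 500–530 nm intensity and object ratio to cell channel. Percent activity normalized to 20 uM Triacsin C.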

[1] = measured here: cell number channel AC50, cells fed with added oleic acid
[2] = measured here: lipid fluorescence (Fed channel) AC50, cells fed with added oleic acid

Row | SMILES | cell number change [%] | AC50 [1] | AC50 [2]
1 | Cc1cccc(NC(=O)CN2CCc3cc4c(cc3C2)OCCCO4)c1 | -5.9 | 5.17 µM [rising, single point] | –
2 | CC(C)(C)Nc1nc(Nc2ccc([N+](=O)[O-])cc2)nc(NC(C)(C)C)n1 | 10.3 | – | 29.1 µM [rising, single point]
3 | COc1cc(OC)c(OC)cc1/C=C1\CCC(C2CCCC2)C1=O (stereo not given) | 56.1 | 14.6 µM [rising, partial curve, poor fit] | 0.116 µM [rising, full curve, poor fit]
4 | O=C(CO/N=C1\CCCc2nonc21)Nc1ccccc1Cl | 9.67 | – | 4.61 µM [rising, full curve, poor fit]
5 | Nc1nccc(-c2cccs2)n1 | -64.8 | 6.51 µM [rising, partial curve, poor fit] | –
6 | C=CCN1C(=O)c2ccc(C(=O)NCC(c3ccccc3)N(C)C)cc2C1=O (stereo not given) | -16.9 | – | 18.4 µM [falling, single point]
7 | O=C(NCc1ccccc1)C1CC2CCCC(C1)C2=O (stereo not given) | -16.3 | 0.58 µM [falling, full curve] | 29.1 µM [falling, single point]
8 | Cc1cc(C)n2nc(SCC(=O)Nc3ccccc3C)nc2n1 | 7.69 | – | –
9 | OCCCc1nc2n(n1)C(c1ccccc1Cl)C=C(c1cccs1)N2 (stereo not given) | – | 0.58 µM [rising, full curve] | 0.366 µM [rising, full curve]
10 | Cc1c(S(=O)(=O)N2CCN(c3cccc(Cl)c3)CC2)c(=O)n(C)c(=O)n1C | 21.4 | – | 5.17 µM [rising, full curve, poor fit]
11 | Cn1ccnc1C(=O)c1cc(=O)c2ccccc2o1 | 16.9 | – | –
12 | CC(C)c1ccc(NC(=O)NC2CCN(CC(=O)Nc3cccc4ccccc34)CC2)cc1 | 22.9 | 6.51 µM [falling, single point] | 7.31 µM [falling, partial curve]
13 | O=C(O)/C=C/C(=O)Nc1ccc(OC(F)(F)Cl)cc1 | 70.1 | 16.4 µM [rising, single point] | –
14 | CNNC(=S)Nc1cccc(C(F)(F)F)c1 | – | – | 10.3 µM [rising, partial curve]
15 | COc1cccc(CN2CCN(Cc3cccc(Oc4ccccc4)c3)CC2)c1OC | – | – | 0.13 µM [rising, full curve, poor fit]
16 | Clc1ccc(C2=NCCN2)cc1 | 10.8 | – | –
17 | CC(=O)Nc1cc2c(cc1NC(=O)Cn1nc(-c3ccc(F)cc3)ccc1=O)OCCO2 | 13 | – | 0.651 µM [rising, partial curve, poor fit]
18 | CC(C)C(NC(=O)c1ccccc1NC(=O)c1ccccc1)C(=O)NCCCn1ccnc1 (stereo not given) | 36.6 | 9.2 µM [rising, partial curve] | 5.8 µM [rising, full curve]
19 | CCOC(=O)c1cnc2c(-c3ccccc3OC)c(C)nn2c1C | 7.76 | – | 0.00461 µM [rising, full curve, poor fit]

Some entries already given, reduced to AC50 [2] and AC50 [1]:
Row	SMILES	AC50 [2]	AC50 [1]
4	O=C(CO/N=C1\CCCc2nonc21)Nc1ccccc1Cl	4.61 µM [rising, full curve, poor fit]	–
5	Nc1nccc(-c2cccs2)n1	–	6.51 µM [rising, partial curve, poor fit]
10	Cc1c(S(=O)(=O)N2CCN(c3cccc(Cl)c3)CC2)c(=O)n(C)c(=O)n1C	5.17 µM [rising, full curve, poor fit]	–
19	CCOC(=O)c1cnc2c(-c3ccccc3OC)c(C)nn2c1C	0.00461 µM [rising, full curve, poor fit]	–

Continuation:

Row | SMILES | cell number change [%] | AC50 [1] | AC50 [2]
20 | CC(C)CC(COCc1cccc(Cl)c1)N1CCN(C(=O)c2ccc(C(F)(F)F)cc2)CCC1=O (stereo not given) | -46.7 | 9.2 µM [falling, partial curve] | 14.6 µM [falling, partial curve, poor fit]
21 | COCCN(C(=O)COc1ccccc1C#N)c1c(N)n(Cc2ccccc2)c(=O)[nH]c1=O | 9.28 | – | –
22 | CC(NC(=O)C1CCN(S(=O)(=O)c2cccc3nonc23)CC1)c1ccccc1 (stereo not given) | 36.5 | 20.6 µM [rising, partial curve, poor fit] | 29.1 µM [falling, single point]
23 | CCCc1cc(C(=O)Nc2cccnc2Cl)no1 | -143 | 29.1 µM [falling, partial curve] | 29.1 µM [falling, single point]
24 | Cc1ccc2c(c1)N(C(=O)CCC(=O)NCCCN1CCOCC1)CC(C)O2 (stereo not given) | 5.76 | – | 4.11 µM [rising, full curve]
25 | O=C(CN1C(=O)NC2(CCCc3ccccc32)C1=O)N1CCCCC1 (stereo not given) | -31.5 | 10.3 µM [falling, partial curve, poor fit] | –
26 | Cc1ccc(-c2cc3nn(-c4ccccc4)c(N)c3c(=O)o2)cc1 | -13.4 | – | 20.6 µM [falling, single point]
27 | CCc1nn(CCCC(=O)N2CCc3ccccc3C2)c(=O)c2cc3occc3n12 | -0.613 | – | 0.00461 µM [falling, full curve, poor fit]
28 | COc1ccc2c(c1)C(=O)N1[C@H]3c4cc(OC)ccc4OC[C@@H]3[C@H](c3ccccc3)[C@]1(C)C(=O)N2 | -22.3 | – | 29.1 µM [falling, single point]
29 | CCOC(=O)CN1C(=O)C(C)(C)Oc2ccc(C(=O)NC(C)(C)CC)cc21 | 31.5 | 14.6 µM [rising, single point] | –
30 | Cc1cc(C)nc(/N=C(/NC(=O)Nc2cccc(Cl)c2)Nc2ccccc2)n1 | -9.95 | – | 3.66 µM [falling, single point]
31 | Nc1nnnn1/N=C/c1cccc(Br)c1 | 31.8 | – | –
32 | COc1ccc(C)cc1S(=O)(=O)Nc1cc2c3c(c1)CCN3C(=O)CC2 | -8.9 | – | 6.51 µM [rising, single point]
33 | CC(C)=C[C@@H]1C[C@H](C)[C@H]2CC[C@H](C)c3c(O)c(O)c(C)c1c32 | 11.4 | 0.092 µM [falling, single point] | 1.03 µM [rising, partial curve]
34 | COc1cc(SC)ccc1C(=O)Nc1ccc(C)cc1C | -4.08 | – | 0.366 µM [rising, full curve, poor fit]
35 | O=C(CSc1nnc(-c2ccccc2)n1Cc1ccccc1)N1CCCC1 | -7.08 | – | –
36 | O=C(NNC(=O)c1ccc(O)cc1O)c1ccc(-c2ccccc2)cc1 | 21.6 | – | 23.1 µM [rising, partial curve]
37 | COc1cccc(C2CC(c3cccs3)=NN2C(=O)CSc2nc3ccccc3s2)c1OC (stereo not given) | -29.4 | – | 16.4 µM [falling, partial curve, poor fit]
38 | CC(=O)Nc1ccc(S(=O)(=O)N2CCN(S(=O)(=O)c3ccc(F)c(F)c3F)CC2)cc1 | – | – | 6.51 µM [rising, single point]

Row | SMILES | cell number change [%] | AC50 [1] | AC50 [2]
39 | O=C(N/N=C\C=C\c1ccc([N+](=O)[O-])o1)c1cccs1 | 6.31 | 0.00461 µM [falling, full curve, poor fit] | 0.58 µM [falling, single point]
40 | Cc1cccc(NC(=O)CCS(=O)(=O)c2ccc(Br)cc2)c1 | – | 0.58 µM [rising, single point] | 29.1 µM [rising, single point]
41 | COc1cccc(-n2cc3c(c2-c2ccccc2)c(=O)n(C)c(=O)n3C)c1 | 30 | 2.59 µM [rising, single point] | –
42 | COc1cc(S(=O)(=O)NCC2CCCO2)ccc1Br (stereo not given) | -88.9 | 29.1 µM [falling, single point] | –
43 | COC(=O)c1cc(=O)n(C2CC2)c(=NC2CC2)s1 | – | – | 1.64 µM [falling, single point]
44 | Cc1cc(C)c2[nH]c(=O)c(CN(CC3CCCO3)C(=S)Nc3ccccc3)cc2c1 (stereo not given) | 2.9 | – | 0.326 µM [rising, full curve, poor fit]
45 | CN(c1ccccc1)S(=O)(=O)c1ccc(C(=O)NCc2ccccn2)cc1 | – | 0.116 µM [rising, full curve, poor fit] | –
46 | CCN(CC)CCNc1nc(-c2ccco2)c2c(c1C#N)CC(C)(C)OC2 | 1.11 | 1.16 µM [rising, partial curve] | 0.411 µM [falling, partial curve, poor fit]
47 | O=C(COC(=O)c1ccc(Cl)nc1)NCc1ccc2c(c1)OCO2 | 11.7 | – | 0.731 µM [rising, full curve, poor fit]
48 | Cc1nnc(SCC2=C(C(=O)O)N3C(=O)C(NC(=O)Cn4nc(C(F)F)cc4C)C3SC2)s1 (stereo not given) | -47.2 | 29.1 µM [falling, single point] | 0.731 µM [falling, partial curve, poor fit]
49 | O=C(CSc1nnc(-c2cc3ccccc3cc2O)n1Cc1ccco1)c1ccc(F)cc1 | -31.3 | 8.2 µM [falling, partial curve] | 32.6 µM [falling, single point]
50 | Nc1nc(N)nc(-c2ccccc2-c2nc(N)nc(N)n2)n1 | 23.5 | 2.06 µM [falling, single point] | 2.31 µM [falling, partial curve]
51 | COc1cccc(NC(=O)CSc2nc3ccccc3n2C)c1 | -18.5 | – | 29.1 µM [falling, partial curve]
52 | COC(=O)c1ccc(C(=O)OC)c(NC(=S)N2CCCCC2C)c1 (stereo not given) | 0.851 | – | 9.2 µM [rising, partial curve]
53 | Brc1ccc(-c2csc(-c3ccncc3)n2)cc1 | -5.77 | – | 1.46 µM [rising, full curve, poor fit]
54 | CCN1CCCC1CNc1ccc(S(C)(=O)=O)cc1[N+](=O)[O-] (stereo not given) | 20 | – | 6.51 µM [rising, single point]
55 | Cc1ccc(Cn2nnc3c(=O)[nH]c(C4CCN(S(=O)(=O)c5ccc(S(=O)(=O)NC6CC6)cc5)CC4)nc32)cc1 | 27.8 | – | 0.116 µM [rising, full curve, poor fit]
56 | COc1cc2cnc(-c3ccccc3)c(-c3ccc(C#N)cc3)c2cc1OC | -49.7 | 7.31 µM [falling, partial curve, poor fit] | 9.2 µM [falling, partial curve]

From PubChem BioAssay AID2685 (National Center for Advancing Translational Sciences (NCATS), 2010)
